Reference: article PMC11868331, “A Phase 1b study of the OxPhos inhibitor ME-344 with bevacizumab in refractory metastatic colorectal cancer” (Investigational New Drugs, 2024)

Test system: plasma metabolites
Assay: Metabolomic sub-study, untargeted LC-MS/MS of fasting plasma
Format: in vivo, human
[1] = in ≥ 4 of 6 patients, baseline vs 6 h after ME-344 administration

SMILES: Cc1c(O)ccc2c1OC[C@@H](c1ccc(O)cc1)[C@H]2c1ccc(O)cc1 [ME-344]
- glutamate, serine, ornithine, proline, asparagine, and hypoxanthine in plasma (6 h after ME-344, particularly in subjects longest on therapy): acutely decreased
- unique metabolites that dynamically changed (in at least 4 patients, initial ME-344 administration): 18 metabolites
- metabolites with ≥ 20% decrease, negative mode analysis [1]: 14 metabolites
- metabolites with ≥ 20% decrease, positive mode analysis [1]: 10 metabolites
